Reference: paper PMC12707108, “CpoS-Inc interactions facilitate host cell modulation during Chlamydia trachomatis infection” (Infection and Immunity, 2025)
No constants are given. Whether binding was seen depends on the method and setting. Binding seen in cells or lysates may run through a third protein. A result given as binding can be weak or reduced; the word gives no strength.

Chains of the proteins cited; added tags and fusions are not shown.
UniProt Q15286: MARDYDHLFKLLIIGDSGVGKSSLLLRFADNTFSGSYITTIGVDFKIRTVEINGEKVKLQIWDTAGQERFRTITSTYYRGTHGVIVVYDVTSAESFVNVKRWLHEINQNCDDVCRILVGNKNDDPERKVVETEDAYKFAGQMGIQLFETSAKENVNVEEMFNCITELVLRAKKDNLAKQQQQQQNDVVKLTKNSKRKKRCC

Target: CpoS HA-tag (full-length CpoS, CTL0481) (Chlamydia trachomatis serovar L2 (LGV 434/Bu))
Test: co-IP

eGFP-Rab35 (from UniProt Q15286 1-201)
binding: binds
